These are yes or no findings as the source states them, for the method shown. Some entries that bind do so weakly or less than the wild type.
Columns and labels:
[1] = target: CT584 (Chlamydia trachomatis L2/434) (UniProt O84588); assay: two-hybrid; bacterial adenylate cyclase two-hybrid (BACTH) in Cya-deficient E. coli BTH101; T18 and T25 fusions; blue colonies on LB with IPTG and X-gal, 24 h at 28°C, then β-galactosidase activity with ONPG; Fig. 1B and 1C
[2] = target: T1, Scc4 (Chlamydia trachomatis L2/434), O84670; assay: as above; details: remark: other sources report otherwise
T1 chain: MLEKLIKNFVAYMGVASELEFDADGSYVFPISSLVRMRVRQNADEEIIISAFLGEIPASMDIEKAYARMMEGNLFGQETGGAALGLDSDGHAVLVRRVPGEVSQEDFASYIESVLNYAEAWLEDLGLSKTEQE

| Binder | binding [1] | binding [2] |
| --- | --- | --- |
| CT584 (protein, UniProt O84588 1-183) MTTKPKTLEIDNNTFLLLEGNLKRIFATPIGYTTFREFQNVVFNCAQGQQELANFLFEMLINGKLLQELPAGQKQSAQSLIVQFMMPIRVAKDIHERGEFINFITSDMLAQQERCVFLNRLSRVDGQEFLLMTDVQNTCHLIRHLLSRLLEAQKNPIGEKNLQEIQEDLDSLRAHFEELTKSV | binds | – |
| Scc4, O84670 1-133 (protein) MLEKLIKNFVAYMGVASELEFDADGSYVFPISSLVRMRVRQNADEEIIISAFLGEIPASMDIEKAYARMMEGNLFGQETGGAALGLDSDGHAVLVRRVPGEVSQEDFASYIESVLNYAEAWLEDLGLSKTEQE | – | binds |

Reference: publication PMC3576375
